The target of assay [1] is RlpA-Δ32 (P. aeruginosa PAO1) (UniProt Q9X6V6). In words: SEC + AUC; sedimentation velocity, 42,000 RPM, 20 °C; SEC conditions not shown; both purified.
Assay [2] deals with RlpA-Δ81 (P. aeruginosa PAO1) (UniProt Q9X6V6). Described as above.

These are yes or no findings as the source states them, for the method shown.

B1: RlpA-Δ32 (domain or fragment, UniProt Q9X6V6 32-342)
chain: PQQPARQAGISGPGDYSRPHRDGAPWWDVDVSRIPDAVPMPHNGSVKANPYTVLGKTYYPMNDARAYRMVGTASWYGTKFHGQATANGETYDLYGMTAAHKTLPLPSYVRVTNLDNGKSVIVRVNDRGPFYSDRVIDLSFAAAKKLGYAETGTARVKVEGIDPVQWWAQRGRPAPMVLAQPKQAVAQAAPAAAQTQAVAMAQPIETYTPPPAQHAAAVLPVQIDSKKNASLPADGLYLQVGAFANPDAAELLKAKLSGVTAAPVFISSVVRNQQILHRVRLGPIGSADEVSRTQDSIRVANLGQPTLVRPD
On to B1, for which the binding result in assay [1] is “no binding”.

B2: RlpA-Δ81 (domain or fragment, UniProt Q9X6V6 82-342)
chain: YTVLGKTYYPMNDARAYRMVGTASWYGTKFHGQATANGETYDLYGMTAAHKTLPLPSYVRVTNLDNGKSVIVRVNDRGPFYSDRVIDLSFAAAKKLGYAETGTARVKVEGIDPVQWWAQRGRPAPMVLAQPKQAVAQAAPAAAQTQAVAMAQPIETYTPPPAQHAAAVLPVQIDSKKNASLPADGLYLQVGAFANPDAAELLKAKLSGVTAAPVFISSVVRNQQILHRVRLGPIGSADEVSRTQDSIRVANLGQPTLVRPD
On to B2, for which, in assay [2], the binding result is “no binding”.

The record behind these values is article PMC9712689.
